From paper PMC8310135 (Viruses, 2021) come the findings set out here.

Where two headings read alike, the source gives them in different places.

The subject of one series is rLUJV/ZsG. Kind of series: microbe, parasite or virus in culture. The class given is cell-based, Lujo virus.
A further series can be described thus: in vitro. As to conditions: human.

As to `CCCCc1oc2ccccc2c1C(=O)c1cc(I)c(OCCN(CC)CC)c(I)c1` [Amiodarone], the “SI (selectivity index, CC50 divided by EC50)” value in the series on rLUJV/ZsG is on record as 2.8. Moreover, the EC50 with rLUJV/ZsG (Mammarenavirus lujoense, Huh-7, read-out: EC50 (concentration inhibiting ZsG expression by 50%)) came out at 4.9 ± 0.51 µM. Moreover, in the series with rLUJV/ZsG (read-out: EC50 (concentration inhibiting ZsG expression by 50%)), the EC50 was 4.9 ± 0.513 µM. Besides, in the series “in vitro”, the viability at 0.05 µM stood at 132%, the viability at 0.5 µM was determined as 145% and the viability at 5 µM worked out at 86%.
